Test results as given in patent US7452523B2 (priority 2004, dated 2008).
Like-named read-outs stand apart in the source and are kept apart here.

Tests used:
[1] = tested on: patients suffering from cough; details: 16 mg lung dose delivered as 40 mg/1 ml saline
[2] = tested on: guinea pigs exposed to citric acid or capsaicin; details: cited from earlier work

CCN(CC)CC(=O)Nc1c(C)cccc1C [lidocaine, acetamide 2-(diethylamino)-N-(2,6-dimethylphenyl)]
severe undesirable effects (oropharyngeal numbing, loss of gag reflex, increased plasma levels) [1]: void of any severe undesirable effects | first cough ([2]; aerosol 1 mg/ml): not | number of coughs ([2]; aerosol 10 mg/ml): significantly decrease a number of coughs | first cough ([2]; aerosol 0.1 and 10 mg/ml): postpone a first cough
